Measurements reported in PubChem BioAssay AID720505 (Drosophila RNAi Screening Center, 2013)
In all, the deposit lists about 20,000 reagents; shown is a random part of those with a known target gene and a result. Over the whole deposit, about 2,100 (10%) are marked active. 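Raw plate signals without normalisation; calls rest on control-based scores that were not deposited; replicate 2 separates called from uncalled poorly.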 Names joined by + are all predicted targets of the reagent. Not given: the amount of reagent, the time to read-out.

- Assay: 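Fly regulators or components of the CRAC channel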 (primary screen)
- System: Drosophila S2R+ cells
- Reagents: long dsRNA against Drosophila genes
- Challenge: thapsigargin (2 µM) in calcium-free buffer to empty internal stores, then 2 mM calcium added back
- Measured: 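Stores emptied by 2 µM thapsigargin without calcium, then 2 mM calcium re-added; fluo-4 fluorescence followed by FLIPR in 384-well plates, per-well averaged endpoint, raw; two screen passes, some wells retested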
- Direction: calcium signal and retest calcium signal: higher = more calcium entry after store depletion
- Call rule: 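Knock-downs counted as hits when calcium entry dropped relative to STIM1 positive and Rho1 negative controls present on each plate; roughly 1500 genes called, with reductions of differing size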
- Meaning of the calls: active = called as lowering calcium entry; inactive = not called

The opening 3 records, ahead of the listing:
| gene | PubChem SID | calcium signal, replicate 1 | calcium signal, replicate 2 | retest calcium signal, replicate 1 | retest calcium signal, replicate 2 | call |
| --- | --- | --- | --- | --- | --- | --- |
| ms(3)76Ba | SID104189883 | 101 | 179 | – | – | inactive |
| CG1227 | SID104192326 | 96.7 | 157 | – | – | inactive |
| CG30466 | SID104185348 | 90.6 | 123 | – | – | inactive |

Main list, from the start:
| gene | PubChem SID | calcium signal, replicate 1 | calcium signal, replicate 2 | retest calcium signal, replicate 1 | retest calcium signal, replicate 2 | call |
| --- | --- | --- | --- | --- | --- | --- |
| ms(3)76Ba | SID104189883 | 101 | 179 | – | – | inactive |
| CG1227 | SID104192326 | 96.7 | 157 | – | – | inactive |
| CG30466 | SID104185348 | 90.6 | 123 | – | – | inactive |
| Ilp8 | SID104189868 | 117 | 176 | – | – | inactive |
| Prestin | SID104190299 | 88.5 | 88.2 | – | – | active |
| COX7AL | SID104195105 | 118 | 111 | – | – | inactive |
| pea | SID104186912 | 124 | 127 | – | – | inactive |
| dec | SID104198551 | 255 | 73.8 | – | – | inactive |
| dec | SID104201209 | 139 | 121 | – | – | inactive |
| boi | SID104198217 | 105 | 118 | – | – | inactive |
| boi | SID104198390 | 85.5 | 125 | – | – | inactive |
| hydra | SID104200289 | 71.6 | 171 | – | – | active |
| CG6567 + CG42394 | SID104201768 | 81.5 | 222 | – | – | inactive |
| Dp | SID104187194 | 135 | 97.3 | – | – | inactive |
| SdhC | SID104195880 | 98.4 | 96 | – | – | inactive |
| CG7910 | SID104196133 | 110 | 190 | – | – | inactive |
| Burs | SID104194387 | 177 | 168 | – | – | inactive |
| CG43102 | SID104194589 | 104 | 140 | 97.6 | 77.9 | inactive |
| CG43102 | SID104196031 | 66 | 91.4 | – | – | active |
| Root | SID104195764 | 153 | 149 | – | – | inactive |
| Dpy-30L1 | SID104182751 | 102 | 97 | – | – | inactive |
| pcx | SID104197978 | 88 | 90.1 | – | – | inactive |
| pcx | SID104197979 | 97.7 | 109 | – | – | inactive |
| pcx | SID104197980 | 73.1 | 76.4 | – | – | inactive |
| pcx | SID104197981 | 61.6 | 97.9 | – | – | active |
| pcx | SID104197982 | 54.1 | 86.5 | – | – | active |
| pcx | SID104198608 | 111 | 115 | – | – | inactive |
| CG18508 | SID104197947 | 105 | 131 | – | – | inactive |
| Cec-Psi1 | SID104201568 | 108 | 226 | – | – | inactive |
| stumps | SID104195124 | 148 | 138 | – | – | inactive |
| stumps | SID104196865 | 157 | 126 | – | – | inactive |
| prim | SID104186367 | 153 | 139 | – | – | inactive |
| CG13994 | SID104182118 | 152 | 107 | – | – | inactive |
| CG13056 | SID104189729 | 81.7 | 165 | – | – | inactive |
| atos | SID104187110 | 89.2 | 212 | – | – | inactive |
| Gnpnat | SID104195197 | 143 | 144 | – | – | inactive |
| CG3505 | SID104195281 | 154 | 124 | – | – | inactive |
| Glt | SID104183125 | 85.7 | 70.6 | – | – | inactive |
| CG7214 | SID104182820 | 65.8 | 62.4 | 158 | 219 | active |
| CG7214 | SID104201507 | 80.6 | 165 | – | – | inactive |
| CG33217 | SID104202266 | 118 | 147 | – | – | inactive |
| beta'COP | SID104183284 | 86.2 | 87.5 | – | – | inactive |
| Gr59d | SID104201987 | 83 | 151 | – | – | inactive |
| CG13875 | SID104188137 | 106 | 98.3 | – | – | inactive |
| CG31086 + CG31323 | SID104194694 | 196 | 117 | – | – | inactive |
| CG40245 (retired record) | SID104200804 | 95.1 | 8744 | – | – | inactive |
| E(spl)m2-BFM | SID104196783 | 196 | 144 | – | – | inactive |
| E(spl)m2-BFM | SID104202439 | 120 | 113 | – | – | inactive |
| shep | SID104189557 | 98.4 | 68.1 | – | – | inactive |
| shep | SID104189563 | 101 | 78 | – | – | inactive |
| CG15570 | SID104197850 | 166 | 121 | – | – | inactive |
| BRWD3 | SID104195161 | 169 | 244 | – | – | inactive |
| BRWD3 | SID104195824 | 255 | 209 | – | – | inactive |
| YL-1 | SID104182557 | 162 | 122 | – | – | inactive |
| Egm | SID104187111 | 179 | 154 | – | – | inactive |
| Egm | SID104202219 | 73.1 | 84.6 | – | – | inactive |
| vn | SID104191200 | 83.8 | 80.6 | – | – | inactive |
| vn | SID104202578 | 116 | 141 | – | – | inactive |
| Xbp1 | SID104184345 | 173 | 152 | – | – | inactive |
| Xbp1 | SID104201319 | 116 | 105 | – | – | inactive |
| Cyp6w1 | SID104184701 | 155 | 79.2 | – | – | inactive |
| LysRS | SID104197616 | 190 | 148 | – | – | inactive |
| CG32066 | SID104190444 | 77.1 | 95.6 | – | – | inactive |
| CG32066 | SID104190445 | 82.4 | 70 | – | – | inactive |
| slpr | SID104198017 | 117 | 78.5 | – | – | inactive |
| slpr | SID104202678 | 111 | 138 | – | – | inactive |
| Pex19 | SID104182631 | 98.3 | 95.4 | – | – | inactive |
| Unc-115b + p24-2 | SID104196284 | 119 | 96.6 | – | – | inactive |
| Ir64a | SID104189551 | 127 | 67.5 | – | – | inactive |
| Ir64a | SID104189552 | 125 | 74 | – | – | inactive |
| cysu | SID104195694 | 119 | 148 | – | – | inactive |
| CG3770 | SID104184208 | 94.2 | 98.9 | – | – | inactive |
| CG12923 | SID104186029 | 78.3 | 92.5 | – | – | inactive |
| Glyp | SID104180544 | 74.4 | 94.5 | – | – | inactive |
| tup | SID104183419 | 102 | 102 | – | – | inactive |
| CG43740 | SID104197640 | 82.7 | 101 | – | – | inactive |
| CG43740 | SID104197786 | 92.7 | 99.2 | – | – | inactive |
| CG43740 | SID104202416 | 90.5 | 152 | – | – | inactive |
| CG43740 | SID104202624 | 110 | 111 | – | – | inactive |
| Vsp37A | SID104198586 | 58.6 | 146 | – | – | active |
| sals | SID104194717 | 109 | 87.8 | – | – | inactive |
| sals | SID104195905 | 170 | 114 | – | – | inactive |
| Or13a | SID104200057 | 102 | 132 | – | – | inactive |
